## Screening data, single-dose tests

Results are given as percent effect. How 0% and 100% were set is not recorded. Most values in the screen are low, and negative values occur. This is an unselected part of the compounds tested.

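Whole-parasite assay of Trypanosoma brucei over 72 hours; the read-out is not stated. Tested at 30 µM. Higher reads as stronger inhibition (inferred: compounds with an IC50 in retests scored well above the rest). Values scatter widely below zero; nearly all retest evidence comes from the higher of the two concentrations used. About 64,000 compounds were tested under these conditions; 1.5% (about 940) showed 50% or more at least once.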

structure | Percent Effect
Cc1ccccc1C(O)CNC(=O)Cc1ccc(F)cc1 (centres undefined) | -31.53%
O=C(O)C(F)(F)F.O=C(O)C(F)(F)F.[H][C@@]12CO[C@@H](CN3CCOCC3)[C@]1([H])CCN(Cc1ccsc1)C2 | -46.86%
COc1cccc(-c2cc(NCCO)nc3[nH]ccc23)n1 | -6.078%
CC1=C(CCN2CCCC(O)C2)C(C)(C)CCC1 (centres undefined) | -11.94%
Cc1nn(C)c(Cl)c1CNCc1cccnc1N1CCN(C)CC1.Cl | 8.332%
CCOc1cc(C(=O)N(C)C)ccc1NC(=O)C(C)c1ccsc1 (centres undefined) | -51.81%
NCC1CCC2(CCN(C(=O)c3ccccn3)CC2)CO1.O=C(O)C(F)(F)F.O=C(O)C(F)(F)F (centres undefined) | -64.89%
O=C(O)C(F)(F)F.[H][C@]12CCN(S(=O)(=O)C3CC3)CC[C@@]1([H])S(=O)(=O)CCN2CC(C)C | -42.59%
Cc1ncccc1NC(=O)c1nc2c(n1C)CCN(C(=O)C1CC1)C2 | -0.3424%
CCn1ccc(-c2nnc(SCC(=O)NCC(C)C)n2CC)n1 | -33.28%
O=C(CSc1ccccc1F)NS(=O)(=O)c1ccc2c(c1)OCCO2 | 1.324%
[H][C@@]12CCN(CC3CC3)C(=O)[C@@]1([H])CN(c1ncc(C)cn1)C2 | -34.67%
CCNC(=O)c1ccnc(CC2COc3c(cccc3OC)C2)c1 (centres undefined) | -53.43%
NC(=O)CC1CCN(C(=O)NCc2cccc(-n3cccn3)c2)CC1 | 1.473%
Cc1cc(O)ncc1NS(=O)(=O)c1cccc(F)c1F | -24.33%
COc1ccc2c(c1)C(NCCc1ccccn1)CCCO2 (centres undefined) | 0.002164%
CN1C(=O)CC(c2ccncc2)C12CCN(c1ncccn1)CC2.O=C(O)C(F)(F)F (centres undefined) | -22.81%
CCN(Cc1ccc(F)cc1Cl)C1CCS(=O)(=O)C1 (centres undefined) | -46.38%
CCN(C(=O)C1Cc2cc(Cl)ccc2O1)C1CC1 (centres undefined) | -12.43%
CCn1cnnc1C1CCN(C(=O)c2cccc(N(C)C)c2)CC1 | 2.319%
N[C@H]1CN(C(=O)CCC(F)(F)F)C[C@@H]1c1ccccc1 | -25.99%
O=C(O)C(F)(F)F.O=C(O)C(F)(F)F.O=C(O)C(F)(F)F.[H][C@@]12CN(Cc3ccoc3)CCO[C@]1([H])CN(Cc1cccc(C)n1)C2 | -36.87%
O=C(C1CCC1)N1CCCC(c2ccnc(Nc3cnccn3)n2)C1 (centres undefined) | 29.22%
[H][C@]12CC[C@]([H])(CN(C(=O)c3cccnc3)C1)N(Cc1cc(F)ccc1F)C2 | -69.35%
CCN(CC)c1nc(Nc2cccc(C(C)O)c2)nc2ccccc12 (centres undefined) | 78.38%
CCOCC(=O)N1CCc2c(ncnc2N2CCOCC2)C1 | -1.58%
Cc1nc(C(=O)N2CCc3[nH]nc(Nc4ccccc4)c3C2)co1 | -24.7%
Cc1nc(Cn2cncc(Br)c2=O)no1 | -11.41%
Cc1cc(-c2nccs2)nc(C2CCN(Cc3ccncc3)CC2)n1.Cl | 7.08%
COCCNC(=O)c1nn(-c2cccc(C(C)C)c2)cc1O | -40.1%
CNS(=O)(=O)Cc1ccc(CNC(=O)c2ccccn2)cc1 | -17.29%
Cc1ccn2ncc(C(=O)N3CCCC(c4noc(C)n4)C3)c2n1 (centres undefined) | 1.103%
COc1ccccc1CNC(=O)C(C)n1cc2c(n1)c(C)nn2C (centres undefined) | 2.629%
Cn1cc(C(=O)NCc2ccc(N3CCCC3)nc2)ccc1=O | -3.211%
Cc1cc(C)c(CNC(=O)C2CCCN(c3cnccn3)C2)c(=O)[nH]1 (centres undefined) | -33.53%
CN(C)c1cc(C(F)(F)F)nc(N2CCCC2c2ccccn2)n1 (centres undefined) | -15.2%
O=C(O)C(F)(F)F.[H][C@]12CCC[C@@]1(COC)CN(C(=O)CN(C)C)C2 | 3.421%
Cc1cccc(C)c1OCC(C)Nc1nc(N)nc2c1CCNC2 (centres undefined) | -0.3729%
O=S(=O)(NCCc1cn2ccccc2n1)N1CCOCC1 | -37.33%
COc1ccc2c(c1)CCN2Cc1nc2c(cnn2C)c(=O)[nH]1 | -17.29%
CC(C)CNC(=O)CSc1nnc(OC(C)C)s1 | -81.16%
CC(=O)N1CCN(C(=O)CNc2cccc(OC(F)F)c2C)CC1 | -7.359%
N#Cc1cc2c(=O)n(CC(O)C(F)(F)F)ccc2[nH]c1=O (centres undefined) | -34.62%
O=c1c2cnc(N3CCCCC3)nc2ccn1-c1ccccc1 | 0.1972%
CCn1cc(CN2CCC(c3[nH]ncc3S(C)(=O)=O)C2)cn1 (centres undefined) | 4.096%
Cn1ccnc1CN1CCC2(CC(=O)N(c3ccsc3)C2)C1.O=C(O)C(F)(F)F (centres undefined) | -16.14%
CCn1ncc2c1C(COCC1CC1)CN(C(=O)c1cccs1)C2 (centres undefined) | -0.6515%
c1cc(-c2c[nH]c([C@@H]3COCCN3CC3CC3)n2)ccn1 | 2.955%
Cc1nccn1CCCn1cncc1-c1ccc2c(c1)CC(C)N2C.Cl (centres undefined) | -10.42%
COc1cc(CSc2nnc(N)n2C2CC2)ccc1SC | 5.035%
[H][C@@]12OCCN(S(=O)(=O)C3CC3)[C@@]1([H])CC[C@H]2OC | -5.214%
CCc1nnc2n1CCN(C(C(N)=O)c1ccc(F)cc1)C2 (centres undefined) | -45.59%
CN1C[C@H](O)[C@]2(CCN(C(=O)COc3ccccc3)C2)S1(=O)=O | -2.089%
COc1cccc(NC(=O)N2CCC(O)(C(F)(F)F)C2)c1 (centres undefined) | 18.59%
Cn1cc(C(=O)N2CCCC(Cc3cccc4ncccc34)C2)cn1 (centres undefined) | -45.5%
CCC(=O)Nc1ccc(C(C)NC(=O)COC)cc1 (centres undefined) | -49.58%
Cc1cnc(CNc2c(F)cccc2-n2cccn2)o1 | -49.78%
Cn1nccc1-c1nnn2c1COC(CNCc1nccs1)C2.O=C(O)C(F)(F)F (centres undefined) | -0.9844%
CN(C)CCOCc1ncn2c1CN(c1ncc(F)cn1)CCC2.O=C(O)C(F)(F)F | -5.519%
O=C(NCCNC(=O)C1CCN(CC(F)(F)F)CC1)c1ccoc1 | -23.59%
Cc1ccc2c(n1)N(CCN(C)C)CCN(C(=O)N1CCOCC1)C2 | -20.62%
CN(Cc1nc(N)c2ccccc2n1)CC1CCCN1c1cccnn1 (centres undefined) | 4.932%
Cc1ccc(-c2cc(-c3nc(CN4CCN(C)CC4)no3)n[nH]2)cc1 | 33.79%
Cc1nc(C2CCCN(C(=O)COCCc3ccccc3)C2)no1 (centres undefined) | 11.58%
COCC1CC2(CCN(C(=O)c3ccco3)CC2)CN1C(C)C.O=C(O)C(F)(F)F (centres undefined) | 4.332%
CCc1ncc(CN2CCC3(CCCN(CC4CCC4)C3)C2)cn1 (centres undefined) | 1.307%
O=C(Nc1nccs1)C1CCN(Cc2cccc3c2OCCO3)CC1 | -16.74%
CC(C)(C)C(NC(=O)CCS(C)(=O)=O)c1ccc(F)cc1F (centres undefined) | -53.18%

The first 6 entries again:

structure	Percent Effect
Cc1ccccc1C(O)CNC(=O)Cc1ccc(F)cc1 (centres undefined)	-31.53%
O=C(O)C(F)(F)F.O=C(O)C(F)(F)F.[H][C@@]12CO[C@@H](CN3CCOCC3)[C@]1([H])CCN(Cc1ccsc1)C2	-46.86%
COc1cccc(-c2cc(NCCO)nc3[nH]ccc23)n1	-6.078%
CC1=C(CCN2CCCC(O)C2)C(C)(C)CCC1 (centres undefined)	-11.94%
Cc1nn(C)c(Cl)c1CNCc1cccnc1N1CCN(C)CC1.Cl	8.332%
CCOc1cc(C(=O)N(C)C)ccc1NC(=O)C(C)c1ccsc1 (centres undefined)	-51.81%

From ChEMBL document CHEMBL3988442, “University of Dundee, Small-Polar-MMV Screening Library” (2021).